# Test results from PubChem BioAssay AID720504 (National Center for Advancing Translational Sciences (NCATS), 2013).
# Chains of the proteins cited; added tags and fusions are not shown.
# UniProt P53350, whole entry, looked up: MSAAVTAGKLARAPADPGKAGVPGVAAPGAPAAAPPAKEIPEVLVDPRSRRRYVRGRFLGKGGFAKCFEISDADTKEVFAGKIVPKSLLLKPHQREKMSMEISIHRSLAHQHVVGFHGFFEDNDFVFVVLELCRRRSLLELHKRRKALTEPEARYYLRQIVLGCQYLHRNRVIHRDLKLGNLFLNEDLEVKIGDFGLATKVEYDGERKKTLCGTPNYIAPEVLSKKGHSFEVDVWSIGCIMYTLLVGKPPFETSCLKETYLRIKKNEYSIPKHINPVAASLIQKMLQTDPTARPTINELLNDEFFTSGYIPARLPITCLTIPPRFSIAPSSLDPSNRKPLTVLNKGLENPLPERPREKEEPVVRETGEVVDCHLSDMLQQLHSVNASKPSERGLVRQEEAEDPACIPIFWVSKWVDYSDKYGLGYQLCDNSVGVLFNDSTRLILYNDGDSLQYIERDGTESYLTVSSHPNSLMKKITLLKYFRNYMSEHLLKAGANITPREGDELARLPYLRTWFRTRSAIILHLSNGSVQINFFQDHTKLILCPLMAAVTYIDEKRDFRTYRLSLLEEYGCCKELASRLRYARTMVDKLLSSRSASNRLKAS
# The campaign covered roughly 360,000 compounds. About 10,000 (2.8%) were called active. Inconclusive results, whose numbers are uncertain, are shown with a selection of clear calls. Calls follow the shape of the dose curve; as a rule, active = well fitted inhibition curve with a large enough effect; inconclusive = small, poorly fitted or top-dose-only effect; inactive = flat fitted curve, though single readings scatter. Potencies of inconclusive entries are doubtful fits and often do not repeat.
# Molecular target: Serine/threonine-protein kinase PLK1 (Homo sapiens) (UniProt P53350)
# Assay: qHTS for Inhibitors of PLK1-PDB (polo-like kinase 1 - polo-box domain): Primary Screen; also: nearly all actives have a fitted effect of over 65% in size; as to max response, negative = inhibition: series mostly up to about 57 µM
# Details: Plk1 PBD binding of FITC phosphopeptide, fluorescence polarization
# Source text: The polo-like kinase 1 (Plk1) is a member of a conserved subfamily of serine / threonine protein kinases that plays a pivotal roles in cell proliferation. It has a C-terminal non-catalytic region called the polo-box domain (PBD) that plays a crucial role in the subcellular localization of the Plk1. […] Furthermore, depletion of the overexpressed Plk1 by RNAi efficiently induces apoptotic cell death in cancer and reduces tumor growth in mouse xenograft models. Thus, targeting Plk1 is an appealing strategy for anti-cancer therapy. Therefore, this project aimed to screen the Molecular Libraries Small Molecule Repository (MLSMR) using a novel approach to find inhibitors that target the Plk1 PBD instead of the conventional N-terminal catalytic domain. This project employed a fluorescence polarization (FP) assay using a FITC-conjugated phospho-9-mer (p-9-mer) peptide and purified human Plk1 PBD protein. The identified small molecule inhibitors of Plk1 PBD can then further be developed into useful tools for biomedical and clinical research that complements or replaces current relevant disease therapy. NIH Chemical Genomics Center [NCGC] NIH Molecular Libraries Probe Centers Network [MLPCN] MLPCN Grant: MH100728 Assay Submitter (PI): Kyung Lee, NCI
# Four microliter of 25 nM FITC-p-9-mer + 60 nM Plk1 PBD in buffer solution (final concentrations 25 nM and 60 nM respectively) or 4 uL of 25 nM FITC-p-9-mer (final concentration 25 nM) in buffer will be dispensed into a 1,536 Greiner medium-binding black solid plate. Small molecules at final concentrations of 18 nM to 57 uM and positive control phospho-9-mer (sequence: Ac-PPLHSpTAI-NH2) at final concentrations 26 nM to 57 uM and phospho-13-mer (sequence: Ac-[…]pTAI-NH2) at final concentrations of 1 nM to 2.3 uM will be pin-transferred (23 nL) to the plate via a Kalypsys pin-tool robotics equipped with a 1,536-pin array. The reaction plate will be centrifuged for 1 min at 1000 rpm and incubated at room temperature for 10 min. The FITC fluorescence signals will be read using the PerkinElmer ViewLux plate reader at 480 / 20 nm excitation and 540 / 20 nm S and P polarization emission wavelengths. Reagent bottles will be kept submerged into 4 °C recirculating chiller bath and all liquid lines will be covered with aluminum foil to minimize degradation. Library plates will be screened starting from the lowest to the highest concentrations to minimize compound carryover. Vehicle only plates, with DMSO being pin-transferred instead of compound solutions, will be included regularly throughout the screen to record any systematic shifts in assay signal.
# % is scaled to controls: 0 for no effect and ±100 for the full control effect; potency is read from the fitted curve at half-maximal effect.
Structure (SMILES),Potency,"max response, negative = inhibition"
Cc1cccc(C(=O)N[C@H](C(=O)OCc2cc(=O)n3c(n2)sc2ccccc23)C(C)C)c1,"inconclusive: 18.9 µM [inhibitor, partial curve]",
O=C(Nc1nc2ccccc2c(=O)s1)c1ccc(F)cc1Cl,"inconclusive: 26.7 µM [inhibitor, partial curve]",
CCN1CCN(CCNC(=O)c2ccc(/C=C3\Sc4ccccc4N(Cc4ccccc4F)C3=O)cc2)CC1,"inconclusive: 21.2 µM [inhibitor, partial curve]",
C[C@H](CO)N1C[C@H](C)[C@@H](CN(C)Cc2ccc3c(c2)OCCO3)OCc2cnnn2CCCC1=O,,inactive: -2.85%
Cc1ccc(/C=N/Nc2nncn2N)cc1,,inactive: 0.856%
Cc1ccc(-c2csc(C3C(N)=NC(S)=C(C#N)C34CCCCC4)n2)cc1 (centres undefined),"inconclusive: 2.67 µM [inhibitor, full curve]",
CN(C)C(=O)c1ccc(-c2cc3onc(-c4ccccc4)c3c(=O)n2C)cc1,,inactive: 0.287%
O=C(Nc1sc2c(c1C(=O)O)CCCC2)c1cccc(Cl)c1,"inconclusive: 33.6 µM [inhibitor, single point]",
CC(C)(C)c1csc(NC(=O)Cn2cnc3ccccc3c2=O)n1,active: 13.4 µM,
Cc1c(NC(=O)c2cc(-c3ccc(F)cc3)on2)c(=O)n(-c2ccccc2)n1C,"inconclusive: 29.9 µM [inhibitor, single point]",
CCc1cc(=O)oc2cc(C)c(CN3CCCC3)c(O)c12,"inconclusive: 26.7 µM [inhibitor, partial curve]",
COc1ccc(-c2cc(C(F)(F)F)nc(S(C)(=O)=O)n2)cc1,"inconclusive: 21.2 µM [inhibitor, partial curve]",
CCCNC(=S)NC1CC2CCCC(C1)N2Cc1ccc(F)cc1 (centres undefined),,inactive: 8.25%
Cc1ccccc1C(=O)Nc1scc(-c2ccc(Br)cc2)c1C(=O)O,active: 21.2 µM,
COCCCNC(=O)/C(C#N)=C/c1c(N2CCN(c3ccccc3)CC2)nc2c(C)cccn2c1=O,,inconclusive: -34.6% [inhibitor]
O=C(NCCCN1CCOCC1)c1ccc(CSc2ccc(Cl)cc2)cc1,"inconclusive: 23.8 µM [inhibitor, single point]",
O=C(CSc1nnc(SCc2ccccc2)s1)NNC(=S)Nc1ccccc1,"inconclusive: 33.6 µM [inhibitor, single point]",
O=C(O)c1ccc(S(=O)(=O)Cc2ccccc2)cc1,"inconclusive: 11.9 µM [inhibitor, partial curve]",
CC(OC(=O)CCc1nc2ccccc2c(=O)[nH]1)C(=O)NC1CCCC1 (centres undefined),,inactive: 14.8%
COCCNC(=S)Nc1ccc(N2CCOCC2)c(S(=O)(=O)Nc2ccccc2OC)c1,active: 21.2 µM,
COC(=O)c1ccccc1NC=C1C(=O)OC2(CCCCC2)OC1=O,active: 4.23 µM,
C=CCN1C=C2C(=O)C(C)(OC(=O)C3CCCC3)C(=O)C=C2C=C1c1ccsc1 (centres undefined),"inconclusive: 37.7 µM [inhibitor, partial curve]",
Cn1cccc1-c1nc2ccc(NC(=O)c3cccs3)cc2[nH]1,,inactive: -2.5%

# Among those listed so far, these have an aryl methoxy group.
Structure (SMILES),Potency,"max response, negative = inhibition"
COc1ccc(-c2cc(C(F)(F)F)nc(S(C)(=O)=O)n2)cc1,"inconclusive: 21.2 µM [inhibitor, partial curve]",
COCCNC(=S)Nc1ccc(N2CCOCC2)c(S(=O)(=O)Nc2ccccc2OC)c1,active: 21.2 µM,

# (list continues)

Structure (SMILES),Potency,"max response, negative = inhibition"
N#Cc1c(-c2ccccc2)nc(SCC(=O)Nc2ccc(OC(F)(F)Cl)cc2)[nH]c1=O,"inconclusive: 29.9 µM [inhibitor, single point]",
CN(Cc1ccc(F)cc1)S(=O)(=O)c1nnc(NC(=O)c2ccccc2Br)s1,,inconclusive: -33.3% [inhibitor]
S=C(NNc1ccnc2cc(Cl)ccc12)Nc1ccc(Cl)cc1Cl,"inconclusive: 16.8 µM [inhibitor, partial curve]",
COc1ccccc1NC(=S)NC(NC(C)=O)C(Cl)(Cl)Cl (centres undefined),"inconclusive: 26.7 µM [inhibitor, partial curve]",
Clc1cccc(NCc2nnc3n2CCCCC3)c1,,inactive: -18%
Cc1ccc2c(c1)c(=O)c1c3n2CCN(C(=O)CCl)C3CC1 (centres undefined),"inconclusive: 18.9 µM [inhibitor, partial curve]",
Cc1cc(=S)[nH]c2ccccc12,"inconclusive: 13.4 µM [inhibitor, partial curve]",
O=C1NCCC/C1=N\Nc1ccc(Br)cc1,"inconclusive: 37.7 µM [inhibitor, single point]",
O=C1/C(=C\c2ccc([N+](=O)[O-])cc2)CS(=O)(=O)C/C1=C/c1ccc([N+](=O)[O-])cc1,active: 4.23 µM,
Cc1ccc(NC(=O)c2ccccc2NS(=O)(=O)c2ccc(Cl)s2)cc1S(=O)(=O)N1CCOCC1,"inconclusive: 37.7 µM [inhibitor, single point]",
O=c1c(C(c2ccc(Cl)cc2)c2c(O)nc3n(c2=O)CCS3)c(O)nc2n1CCS2,active: 26.7 µM,
CC(OC(=O)c1c2c(nc3ccccc13)/C(=C\c1ccc3c(c1)OCO3)CCC2)C(=O)Nc1ccc(S(N)(=O)=O)cc1 (centres undefined),"inconclusive: 8.44 µM [inhibitor, full curve, poor fit]",
CCCSc1nnc(CSc2nc(C)cc(C)n2)n1C,active: 21.2 µM,
CCN(CC(=O)Nc1ccccc1C(F)(F)F)C(=O)CCS(=O)(=O)c1ccc(Cl)cc1,"inconclusive: 26.7 µM [inhibitor, single point]",
N#CCCn1cc(C=O)c(-c2cccs2)n1,active: 26.7 µM,
COC(=O)c1ccc(NC(=S)Nc2cccc(C)n2)cc1,"inconclusive: 37.7 µM [inhibitor, single point]",
CCOC(=O)N1CCN(Cc2nc(N)nc(Nc3ccc(C)cc3C)n2)CC1,"inconclusive: 26.7 µM [inhibitor, single point]",
CCC(=O)Nc1nc(C)c(-c2csc(Nc3cccc(C(=O)O)c3)n2)s1,"inconclusive: 13.4 µM [inhibitor, partial curve]",
COc1ccc(C2=C(SC)CC2=NC(C)(C)C)cc1,"inconclusive: 16.8 µM [inhibitor, partial curve]",
CC1=NN(c2ccc(C)c(C)c2)C(=O)C1C(c1cccc(O)c1)C1C(=O)N(c2ccc(C)c(C)c2)N=C1C (centres undefined),active: 8.44 µM,
O=C(O)C(Cc1ccc(Cl)cc1)Sc1nc2ccccc2[nH]1 (centres undefined),"inconclusive: 29.9 µM [inhibitor, single point]",
CCCNC(=O)c1nc(C)n(-c2ccc([N+](=O)[O-])cc2)n1,active: 26.7 µM,
CNS(=O)(=O)c1ccc(N2CCCC2=O)c([N+](=O)[O-])c1,"inconclusive: 26.7 µM [inhibitor, partial curve]",

Structure (SMILES),Potency,"max response, negative = inhibition"
O=C(CNc1ccccc1OC(F)F)N1CCc2ccccc21,,inactive: -12.5%
NC(=S)n1[nH]c(-c2ccc([N+](=O)[O-])cc2)c(N=Nc2cccc([N+](=O)[O-])c2)c1=O,active: 21.2 µM,
COc1ccc2c(c1)c(C(=O)N/N=C/c1ccc(Br)cc1)c(C)n2C,,inactive: 1.3%
Cc1ccc(S(=O)(=O)N2CCOCC2)cc1NC(=O)c1cc([N+](=O)[O-])ccc1N1CCOCC1,,inactive: -8.82%
CCC(NC(=O)c1cc(COc2cncc(Cl)c2)on1)c1ccc(C)cc1 (centres undefined),"inconclusive: 21.2 µM [inhibitor, single point]",
O=C1CC(N2CCN(c3ccc(Cl)c(Cl)c3)CC2)C(=O)N1 (centres undefined),,inactive: -4.59%
CC(C)NC(=O)/C(C#N)=C/c1cccc(NC(=O)c2ccccc2Cl)c1,,inconclusive: -33.2% [inhibitor]
Cc1ccc(S(=O)(=O)N/N=C/c2ccccc2O)cc1[N+](=O)[O-],"inconclusive: 23.8 µM [inhibitor, partial curve]",
COc1cc(C2NCC(c3ccc(Cl)cc3Cl)c3c2[nH]c2ccccc32)cc(OC)c1OC (centres undefined),"inconclusive: 29.9 µM [inhibitor, partial curve]",
COC(=O)c1c(NC(=S)Nc2ccc(F)cc2[N+](=O)[O-])sc2c1CCCCC2,"inconclusive: 26.7 µM [inhibitor, partial curve]",
O=C(CSc1cccc[n+]1[O-])c1ccc(Cl)cc1,"inconclusive: 33.6 µM [inhibitor, partial curve]",
O=C(Cn1c(S(=O)(=O)Cc2ccccc2)nc2ccccc21)N1CCCCC1,,inactive: -1.51%
CCC(CC)C(C(=O)NCc1ccccc1)N1CCN(c2cccc(C)c2C)CC1 (centres undefined),,inactive: 1.7%
O=S(=O)(NCCc1ccc(F)cc1)c1ccc(F)cc1Br,"inconclusive: 21.2 µM [inhibitor, single point]",
CN(C(=S)Nc1ccc(SC(F)F)cc1)C(c1ccccc1)c1ccccc1,,inactive: 1.54%
CN(C)c1ccc(C(CNC(=O)c2ccccc2)c2c[nH]c3ccccc23)cc1 (centres undefined),,inconclusive: -35.9% [inhibitor]
CN(CCO)C1=NS(=O)(=O)c2cc([N+](=O)[O-])ccc21,,inactive: -3.19%
Cc1ccc(NC(=S)NNC(=S)Nc2ccc(C)cc2)cc1,"inconclusive: 18.9 µM [inhibitor, partial curve]",
O=S(=O)(c1ccc(-c2csc(-c3cccnc3)n2)cc1)N1CCOCC1,"inconclusive: 23.8 µM [inhibitor, single point]",
O=C(Nc1nc2ccccc2[nH]1)c1ccc([N+](=O)[O-])cc1,"inconclusive: 26.7 µM [inhibitor, partial curve]",
Cc1ccc(C(=O)O)cc1NC(=O)C1=CSCCO1,,inactive: -7.12%
N#CC1=C2SCN(Cc3ccco3)CN2C(=O)CC1c1ccc(Cl)cc1 (centres undefined),active: 26.7 µM,
O=C(O)CSc1nc2ccccc2n1Cc1ccccc1,"inconclusive: 29.9 µM [inhibitor, partial curve]",
